# Results as given in patent publication US7981879B2, “HIV integrase inhibitors” (Instituto di Ricerchi di Biologia Molecolare P. Angeletti …, priority 2005, dated 2011).
# Some results were stated once for a whole list of compounds, not compound by compound.
# Tested on: T-lymphoid cells
# Assay: Cytotoxicity by microscopic examination of the cells in the spread assay
# Assay type: cell-based
# Conditions: tested up to 10 micromolar
row,SMILES,toxicity (lowest concentration with morphological change)
1,"CN1CCn2c(nc(C(=O)NCc3ccc(F)cc3)c(O)c2=O)C1COCc1ccccc1 (stereo not drawn) [Compound 11, 9-[(benzyloxy)methyl]-N-(4-fluorobenzyl)-3-hydroxy-8-methyl-4-oxo-6,7,8,9-tetrahydro-4H-pyrazino[l,2-a]pyrimidine-2-carboxamide]",no toxicity
2,"CC(C)CNC1CN(C)CCn2c1nc(C(=O)NCc1ccc(F)cc1)c(O)c2=O (stereo not drawn) [Compound 169, N-(4-fluorobenzyl)-3-hydroxy-10-(isobutylamino)-8-methyl-4-oxo-4,6,7,8,9,10-hexahydropyrimido[1,2-d][1,4]diazepine-2-carboxamide]",no toxicity
3,"CN1CCn2c(nc(C(=O)NCc3ccc(F)cc3)c(O)c2=O)C1CS(C)(=O)=O (stereo not drawn) [Compound 28, N-(4-fluorobenzyl)-3-hydroxy-8-methyl-9-[(methylsulfonyl)methyl]-4-oxo-6,7,8,9-tetrahydro-4H-pyrazino[1,2-a]pyrimidine-2-carboxamide]",no toxicity
4,"CN1CCn2c(nc(C(=O)NCc3ccc(F)cc3)c(O)c2=O)C(N(C)Cc2ccccc2)C1 (stereo not drawn) [Compound 159, 10-[benzyl(methyl)amino]-N-(4-fluorobenzyl)-3-hydroxy-8-methyl-4-oxo-4,6,7,8,9,10-hexahydropyrimido[1,2-d][1,4]diazepine-2-carboxamide]",no toxicity
5,"CN(C)CC1c2nc(C(=O)NCc3ccc(F)cc3)c(O)c(=O)n2CCN1C (stereo not drawn) [Compound 17, 9-[(dimethylamino)methyl]-N-(4-fluorobenzyl)-3-hydroxy-8-methyl-4-oxo-6,7,8,9-tetrahydro-4H-pyrazino[1,2-a]pyrimidine-2-carboxamide]",no toxicity
6,"CN1CCn2c(nc(C(=O)NCc3ccc(F)cc3)c(O)c2=O)C1CN(C)S(=O)(=O)N(C)C (stereo not drawn) [Compound 19, 9-{[[(dimethylamino)sulfonyl](methyl)amino]-methyl}-N-(4-fluorobenzyl)-3-hydroxy-8-methyl-4-oxo-6,7,8,9-tetrahydro-4H-pyrazino[1,2-a]pyrimidine-2-carboxamide]",no toxicity
7,"CN1CCn2c(nc(C(=O)NCc3ccc(F)cc3)c(O)c2=O)C1CN(C)S(C)(=O)=O (stereo not drawn) [Compound 21, N-(4-fluorobenzyl)-3-hydroxy-8-methyl-9-{[methyl(methylsulfonyl)amino]methyl}-4-oxo-6,7,8,9-tetrahydro-4H-pyrazino[1,2-a]pyrimidine-2-carboxamide]",no toxicity
8,"CN(C)CC1c2nc(C(=O)NCc3ccc(F)cc3)c(O)c(=O)n2CCN1Cc1ccn(C)n1 (stereo not drawn) [Compound 16, 9-[(dimethylamino)methyl]-N-(4-fluorobenzyl)-3-hydroxy-8-[(1-methyl-1H-pyrazol-3-yl)methyl]-4-oxo-6,7,8,9-tetrahydro-4H-pyrazino[1,2-a]pyrimidine-2-carboxamide]",no toxicity
9,"CN(C)C(=O)C(=O)N(C)CC1c2nc(C(=O)NCc3ccc(F)cc3)c(O)c(=O)n2CCN1C (stereo not drawn) [Compound 18, N-[(2-{[(4-fluorobenzyl)amino]carbonyl}-3-hydroxy-8-methyl-4-oxo-6,7,8,9-tetrahydro-4H-pyrazino[1,2-a]pyrimidin-9-yl)methyl]-N,N′,N′-trimethylethanediamide]",no toxicity
10,"CC1(C)NS(=O)(=O)Cn2c1nc(C(=O)NCc1ccc(F)cc1)c(O)c2=O [Compound 105, N-(4-fluorobenzyl)-3-hydroxy-9,9-dimethyl-4-oxo-8,9-dihydro-4H-pyrimido[2,1-d][1,2,5]thiadiazine-2-carboxamide 7,7-dioxide]",no toxicity
11,"CC(=O)N1CCn2c(nc(C(=O)NCc3ccc(F)cc3)c(O)c2=O)C1COCc1ccccc1 (stereo not drawn) [Compound 12, 8-acetyl-9-[(benzyloxy)methyl]-N-(4-fluorobenzyl)-3-hydroxy-4-oxo-6,7,8,9-tetrahydro-4H-pyrazino[1,2-a]pyrimidine-2-carboxamide]",no toxicity
12,"CN(C)C(=O)CN1CCn2c(nc(C(=O)NCc3ccc(F)cc3)c(O)c2=O)C1(C)C [Compound 64, 8-[2-(dimethylamino)-2-oxoethyl]-N-(4-fluorobenzyl)-3-hydroxy-9,9-dimethyl-4-oxo-6,7,8,9-tetrahydro-4H-pyrazino[1,2-a]pyrimidine-2-carboxamide]",no toxicity
13,"CN(C)CC1c2nc(C(=O)NCc3ccc(F)cc3)c(O)c(=O)n2CCN1Cc1cocn1 (stereo not drawn) [Compound 15, 9-[(dimethylamino)methyl]-N-(4-fluorobenzyl)-3-hydroxy-8-(1,3-oxazol-4-ylmethyl)-4-oxo-6,7,8,9-tetrahydro-4H-pyrazino[1,2-a]pyrimidine-2-carboxamide]",no toxicity
14,"CN(CC1c2nc(C(=O)NCc3ccc(F)cc3)c(O)c(=O)n2CCN1C)C(=O)c1ccccn1 (stereo not drawn) [Compound 22, N-(4-fluorobenzyl)-3-hydroxy-8-methyl-9-{[methyl(pyridin-2-ylcarbonyl)amino]methyl}-4-oxo-6,7,8,9-tetrahydro-4H-pyrazino[1,2-a]pyrimidine-2-carboxamide]",no toxicity
15,"CN(CC1c2nc(C(=O)NCc3ccc(F)cc3)c(O)c(=O)n2CCN1C)C(=O)c1cccc[n+]1[O-] (stereo not drawn) [Compound 23, N-(4-fluorobenzyl)-3-hydroxy-8-methyl-9-({methyl[(1-oxidopyridin-2-yl)carbonyl]amino}methyl)-4-oxo-6,7,8,9-tetrahydro-4H-pyrazino[1,2-a]pyrimidine-2-carboxamide]",no toxicity
